# Experimental data as given in PubChem BioAssay AID540256 (National Center for Advancing Translational Sciences (NCATS), 2011).
# Among all 300,000 compounds or so, about 3,700 (1.2%) were called active. Inconclusive results, whose numbers are uncertain, are shown with a selection of clear calls. The call rests on the fitted dose curve; tested in HEK293 cells. Where the call is inconclusive, the potency comes from a doubtful curve fit.
# Experiment: qHTS for Inhibitors of binding or entry into cells for Lassa Virus; further: nearly all actives have a fitted effect of over 50% in size
# Details: Lassa virus pseudotype entry inhibition, cell reporter; series mostly up to 37.9 µM
# Potency means the concentration at half of the fitted maximal effect.
row,Structure (SMILES),Potency
1,Cc1ccc2nc(Nc3ccc(C)c(F)c3)c3nncn3c2c1,"inconclusive: 12.6 µM [activator, partial curve, poor fit]"
2,CCN(C(=O)Nc1cn(CC(C)C)c(=O)c2ccccc12)c1cc(C)ccc1C,inactive
3,COC(=O)c1ccc(NC(=O)CNC(=O)C2CCCCC2)c(C)c1,inactive
4,Oc1ccc(C2=NNC(=NCc3ccc4c(c3)OCO4)SC2)c(O)c1,inactive
5,Cc1oc(-c2ccccc2Cl)nc1Cn1c(SCc2cccc(F)c2)nc2cccnc21,"inconclusive: 35.5 µM [inhibitor, single point]"
6,Cc1ccc(CCNS(=O)(=O)c2ccc3c(c2)CC(C)N3C(=O)C2CCC2)cc1 (stereo not given),"inconclusive: 31.6 µM [inhibitor, single point]"
7,C=Cn1c(C(=O)O)ccc1-c1ccc(OC)cc1,"inconclusive: 35.5 µM [activator, single point]"
8,N#CC1=C(N)C2=CCCC[C@H]2[C@H](c2ccc(Br)cc2)C1(C#N)C#N,inactive
9,COc1cccc(-n2nnc3c(=O)n(Cc4c(F)cccc4Cl)cnc32)c1,inactive
10,Cn1cnc(S(=O)(=O)N2CCN(c3cccc(C(F)(F)F)c3)CC2)c1,"inconclusive: 5.62 µM [activator, single point]"
11,CC(C)c1ccc2nc(N)sc2c1,inactive
12,Cn1ccc2c(C=Cc3ccc(F)cc3)cc3c(c21)C1CCC3O1 (stereo not given),"inconclusive: 0.0353 µM [activator, full curve, poor fit]"
13,Cc1ccc(OC(C)C(=O)Nc2ccc3c(c2)n(C)c(=O)n3C)cc1C (stereo not given),"inconclusive: 20 µM [inhibitor, partial curve, poor fit]"
14,O=C(CNc1ccc(F)cc1)c1ccccc1,inactive
15,CCn1nnnc1SCC(=O)c1ccc(C)cc1C,"inconclusive: 14.1 µM [inhibitor, single point]"
16,O=C1[C@@H]2Cc3c([nH]c4ccccc34)C(c3ccccc3)N2C(=O)CN1C1CCN(Cc2ccccc2)CC1 (stereo not given in full),"inconclusive: 7.94 µM [inhibitor, partial curve, poor fit]"
17,CN(CC(=O)Nc1ccc(Cl)cc1)c1ccc(S(=O)(=O)N2CCCCC2)cc1[N+](=O)[O-],"inconclusive: 25.1 µM [inhibitor, single point]"
18,Cc1cccc(OCC(=O)Nc2ccc(-c3nc4ccccc4o3)cc2)c1C,"inconclusive: 1.26 µM [activator, full curve, poor fit]"
19,COc1ccccc1OC(=O)c1ccc(S(=O)(=O)N(C)C)cc1,inactive
20,CC(C)CNC(=O)N1[C@H](c2cccs2)[C@@H](C)C(=O)[C@@H](C)[C@@H]1c1cccs1,inactive
21,COc1ccc(O)c(/C=N/NC(=O)c2ccc(OCc3cccc(Br)c3)cc2)c1,"inconclusive: 4.61 µM [inhibitor, partial curve, poor fit]"
22,CN(C)C(CNC(=O)c1ccco1)c1cccs1 (stereo not given),"inconclusive: 12.6 µM [activator, single point]"
23,COc1ccc(OCC(=O)OCc2cc(=O)n3nc(-c4cccs4)sc3n2)cc1,inactive

# Given bar-delimited: part of the list above
row | Structure (SMILES) | Potency
20 | CC(C)CNC(=O)N1[C@H](c2cccs2)[C@@H](C)C(=O)[C@@H](C)[C@@H]1c1cccs1 | inactive
21 | COc1ccc(O)c(/C=N/NC(=O)c2ccc(OCc3cccc(Br)c3)cc2)c1 | inconclusive: 4.61 µM [inhibitor, partial curve, poor fit]
22 | CN(C)C(CNC(=O)c1ccco1)c1cccs1 (stereo not given) | inconclusive: 12.6 µM [activator, single point]
23 | COc1ccc(OCC(=O)OCc2cc(=O)n3nc(-c4cccs4)sc3n2)cc1 | inactive

# Following part

row,Structure (SMILES),Potency
1,COc1ccc(CCNC(=O)NCCc2c[nH]c3ccccc23)cc1OC,"inconclusive: 1.26 µM [inhibitor, single point]"
2,CCN(CC)Cc1cc(Nc2c3ccccc3nc3c4ccccc4n(C)c23)cc(CN(CC)CC)c1O,active: 11.2 µM
3,Cc1ccc(-n2ncc3c(=O)[nH]c(SC(C)C)nc32)cc1,inactive
4,Cc1ccc(C)c(S(=O)(=O)N2CCN(C(=O)CCC(=O)c3cc(C)sc3C)CC2)c1,"inconclusive: 0.447 µM [inhibitor, single point]"
5,O=C(CSc1nnc(CNC(=O)c2c(F)cccc2F)o1)NCc1ccccc1,inactive
6,O=C(OCc1ccccc1)c1cn(-c2ccccc2)nc1-c1ccncc1,inactive
7,O=C(COC(=O)c1ccccc1Br)NCc1ccccc1,"inconclusive: 20.6 µM [activator, partial curve, poor fit]"
8,Cc1ccc(S(=O)(=O)N(CC(=O)Nc2cccc(N(C)S(C)(=O)=O)c2)c2ccc(Cl)c(Cl)c2)cc1,"inconclusive: 29.1 µM [inhibitor, single point]"
9,COc1ccc(S(=O)(=O)N(C)c2ccc(C(=O)N3CCCCC3)cc2)cc1OC,"inconclusive: 35.5 µM [inhibitor, single point]"
10,C=Cc1cccc(NC(=O)COc2ccccc2)c1,inactive
11,C=CCN(C(=O)c1csnn1)C(C(=O)NCc1ccc(F)cc1)c1sccc1C (stereo not given),inactive
12,COc1ccc(-c2n[nH]c(=S)n2-c2ccccc2C)cc1,"inconclusive: 1.26 µM [inhibitor, single point]"
13,O=C(O)CC(NC(=O)C12CC3CC(CC(C3)C1)C2)c1cc([N+](=O)[O-])ccc1Cl (stereo not given),"inconclusive: 22.4 µM [inhibitor, single point]"
14,Cc1ccc(NC(=O)Cn2c(O)c(N=NC(N)=O)c3ccccc32)cc1,"inconclusive: 22.4 µM [inhibitor, single point]"
15,O=[N+]([O-])c1cc(S(=O)(=O)N2CCCCC2)ccc1NCc1cccc(Cl)c1,inactive
16,CCCC1C(=O)Nc2ccccc2N1C(=O)c1ccc(C(C)(C)C)cc1 (stereo not given),"inconclusive: 10 µM [inhibitor, partial curve, poor fit]"
17,C/C(=N\NC(=O)c1c[nH]c2ccccc12)c1ccc(C)o1,inactive
18,CCOc1ccc(NC(=O)CC2Nc3ccccc3NC2=O)cc1 (stereo not given),"inconclusive: 32.6 µM [inhibitor, partial curve, poor fit]"
19,O=C(Nc1ccccc1)c1nnsc1S(=O)c1ccc(Cl)cc1 (stereo not given),"inconclusive: 22.4 µM [inhibitor, single point]"
20,Clc1ccc2ncc(-c3nnnn3-c3ccccc3)c(-c3ccccc3)c2c1,"inconclusive: 29.1 µM [inhibitor, single point]"
21,N#Cc1c2n(c3c(=O)n(Cc4ccc(Cl)cc4)cnc13)CCCCC2,"inconclusive: 31.6 µM [inhibitor, single point]"
22,O=C1Cc2cc(CCN3CCN(c4nsc5ccccc45)CC3)c(Cl)cc2N1,active: 5.8 µM
